According to patent US5225530A (priority 1986, dated 1993):
Some peptides are written in HELM: one residue between dots, names in brackets for other building blocks, links after the first $.

Assay: peptide synthesis
Details: purification step, relative to peptide removed from the resin

“PEPTIDE1{K.P.K.H.K.K.L.K.Q.P.G.D.G.N.P.N.A.N.P.N.A.N.P.N.A.N.P.N.A}$$$$V2.0” showed a step yield of 40%.
